Measurements: PubChem BioAssay AID1347076 (National Center for Advancing Translational Sciences (NCATS), 2019)
Hit rate of the full screen: of about 400,000 compounds, about 13,000 (3.2%) were called active. This list was built around the results that the source calls inconclusive (neither active nor inactive); the mix of calls is not that of the screen. Calls follow the shape of the dose curve; as a rule, active = well fitted cell-killing curve with a large enough effect; inconclusive = small, poorly fitted or top-dose-only effect, or effect the other way; inactive = flat fitted curve, though single readings scatter. Where the call is inconclusive, the potency comes from a doubtful curve fit.
Potency is read from the fitted curve at half-maximal effect.

Test: qHTS assay for MDR1-selective chemotherapeutics: Primary screen using the drug-selected MDR subline cells KB-V1; also: nearly all actives have a fitted effect of over 60% in size
Details: KB-V1 MDR cells viability, CellTiter-Glo, 72 h; series mostly up to 46.1 µM
How it was run: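 Cytotoxicity toward P-gp-expressing KB-V1 cells was determined as loss of CellTiter-Glo luminescence after 72 h at 37 degrees C. Compounds were tested in quantitative HTS format across a concentration range, with curves fitted to normalized data.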
With CN(Cc1ccc(F)cc1)C(=O)c1cccc(S(=O)(=O)N2CCN(c3ccc(F)cc3)CC2)c1 the Potency was inconclusive: 3.66 µM [cytotoxic, full curve]. With Nc1ncnc2nc(SCC(=O)Nc3ccccc3F)[nH]c12 the Potency was inconclusive: 7.31 µM [rising, partial curve, poor fit]. For CCC(=O)NCCc1nc2ccccc2n1Cc1ccccc1, the Potency was inconclusive: 32.6 µM [cytotoxic, single point]. With Oc1[nH]c2ccc(Br)cc2c1N=NC(=S)N1CCOCC1 the Potency was “inactive”. With CNCCCCOc1ccccc1-c1ccccc1 the Potency was inconclusive: 11.6 µM [cytotoxic, partial curve, poor fit]. With CN(C)S(=O)(=O)c1ccc(C(=O)N2CCN(S(=O)(=O)c3ccc4c(c3)OCCO4)CC2)cc1 the Potency was “inactive”. For S=C(NCc1ccc(Cl)cc1)NC12CC3CC(CC(C3)C1)C2, the Potency was active: 16.4 µM. In the case of CN(C)C(=O)CSc1nnc(-c2cc(-c3cccs3)nc3ccccc23)o1, the Potency is reported as inconclusive: 18.4 µM [cytotoxic, single point]. In the case of Cc1ccc(S(=O)(=O)Nc2cc3c4c(c2)CCN4C(=O)CC3)cc1, the Potency is reported as inconclusive: 29.1 µM [cytotoxic, single point]. In the case of O=C(N/N=C/c1cccnc1)c1cccc(Br)c1, the Potency is reported as inconclusive: 23.1 µM [rising, single point]. For COc1ccccc1-n1c(SCC(=O)Nc2cc(C)on2)nc2c([nH]c3ccccc32)c1=O, the Potency was inconclusive: 16.4 µM [cytotoxic, single point]. In the case of S=C(Nc1ccc(Cl)c(Cl)c1)N1CCOCC1, the Potency is reported as inconclusive: 11.6 µM [cytotoxic, partial curve, poor fit]. For COc1ccc(C2CC(c3cccc(Br)c3)=NN2c2ccc(S(N)(=O)=O)cc2)cc1 (stereo unspecified), the Potency was inconclusive: 29.1 µM [cytotoxic, single point]. With COc1cccc(C(C)NC(=O)Nc2cccc(C(F)(F)F)c2)c1 (stereo unspecified) the Potency was inconclusive: 29.1 µM [cytotoxic, single point]. With CCOc1ccccc1N=C1SCC(C)N1C(=O)C1CCN(c2ncnc3sc(C)c(C)c23)CC1 (stereo unspecified) the Potency was inconclusive: 20.6 µM [cytotoxic, single point]. For Cc1ccc(S(=O)(=O)Nc2cc(Cl)c(O)cc2C)cc1, the Potency was inconclusive: 32.6 µM [cytotoxic, partial curve, poor fit]. With O=C(NCCC(=O)N1CCN(Cc2c(F)cccc2Cl)CC1)c1ccc(Cl)cc1 the Potency was “inactive”. For Cc1ccc(Cn2c(N3CCCCCC3)nc3c2c(=O)[nH]c(=O)n3C)cc1, the Potency was inconclusive: 8.2 µM [cytotoxic, partial curve]. With CC(=O)c1ccc(Nc2cc(C)nc3c(C)cccc23)cc1 the Potency was active: 2.91 µM. With CCOC(=O)CSc1nnc(CSc2nc3sc4c(c3c(=O)[nH]2)CCC4)n1C the Potency was inconclusive: 29.1 µM [rising, single point]. With CCN(CC)C(=S)NC(=O)c1cccnc1 the Potency was “inactive”. With Cc1cc(Cl)ccc1NC(=S)NCc1ccco1 the Potency was active: 20.6 µM. For O=C(Nc1ccc(S(=O)(=O)NC2=NCCCCC2)cc1)c1ccc2ccccc2n1, the Potency was active: 23.1 µM. With Cc1ccc(NC2c3ccccc3C(=O)N2c2cccnc2)cc1 (stereo unspecified) the Potency was inconclusive: 16.4 µM [cytotoxic, single point]. For CCOc1ccc(CN2CCN(C(=O)c3ccco3)CC2)cc1, the Potency was inconclusive: 0.461 µM [cytotoxic, full curve, poor fit]. With COc1cccc(-c2noc(Cn3nc(C(=O)O)c4ccccc4c3=O)n2)c1 the Potency was inconclusive: 32.6 µM [rising, single point]. With CCCN1C(=O)C(NC(C)=O)c2cc(OC)ccc21 (stereo unspecified) the Potency was inconclusive: 16.4 µM [cytotoxic, single point]. In the case of O=C(NN=Cc1c(O)ccc2ccccc12)c1ccncc1, the Potency is reported as active: 0.461 µM. With C=CCOn1c(=O)c(-c2ccc(OC)cc2)[n+]([O-])c2ccccc21 the Potency was “inactive”. For CCc1ccccc1NC(=O)CSc1nc2c(c(-c3ccco3)c1C#N)CCCC2, the Potency was inconclusive: 1.84 µM [cytotoxic, partial curve, poor fit]. With COc1cc(NC(=O)c2cc(C3CC3)nc3c2c(C)nn3-c2ccccc2)cc(OC)c1 the Potency was inconclusive: 23.1 µM [cytotoxic, single point]. In the case of CC(OC(=O)Cn1nnc2ccccc21)C(=O)NC1CCCC1 (stereo unspecified), the Potency is reported as “inactive”. With N#Cc1cccc(C(=O)C(=O)N2CCC(Cc3ccccc3)CC2)c1 the Potency was inconclusive: 11.6 µM [cytotoxic, partial curve, poor fit]. In the case of COC(=O)c1ccc(N=NNc2ccccc2)cc1, the Potency is reported as inconclusive: 29.1 µM [cytotoxic, single point]. With COc1ccccc1/C=C/C(=O)Nc1ccc(N2CCOCC2)cc1 the Potency was “inactive”. In the case of O=C1CCCC2(O)C1C(c1cccc(Br)c1)NC(=O)N2Cc1ccccc1 (stereo unspecified), the Potency is reported as inconclusive: 29.1 µM [rising, single point]. For Cc1cccc(N(C)c2nc3ccccc3c3nnc(C)n23)c1, the Potency was “inactive”. For CCn1c(N2CCN(C(=S)NCC(C)C)CC2)nc2ccccc21, the Potency was active: 10.3 µM. For Cc1ccc(C(=O)c2cn(CC(=O)Nc3ccc(C(C)C)cc3)c3nc(C)ccc3c2=O)cc1, the Potency was “inactive”. In the case of Cc1[nH]c2ccc(C(=O)N3CCN(c4ccccc4Cl)CC3)cc2c1C, the Potency is reported as “inactive”. With CC1CCc2c(sc(Nc3nc4c(F)cccc4s3)c2C(N)=O)C1 (stereo unspecified) the Potency was “inactive”. With CCCCOc1ccc(-c2cn3ccccc3n2)cc1[N+](=O)[O-] the Potency was inconclusive: 25.9 µM [cytotoxic, single point]. For COc1ccccc1OCC(=O)NNC(=O)CSC(=S)N1CCCC1, the Potency was inconclusive: 20.6 µM [rising, single point]. With CCCCCn1c(NCc2ccc(OC)cc2)nc2ccccc21 the Potency was inconclusive: 5.17 µM [cytotoxic, full curve]. In the case of O=C(c1ccc2c3c(cccc13)CC2)C1CCCN(C(=O)c2cccnc2)C1 (stereo unspecified), the Potency is reported as inconclusive: 18.4 µM [cytotoxic, single point]. With COc1ccc(NC(=O)CN(C)C(=O)CCNS(=O)(=O)c2ccc(Br)cc2)cc1 the Potency was inconclusive: 3.26 µM [cytotoxic, partial curve, poor fit]. With Nc1c(Cl)ncnc1N1CCCC1 the Potency was “inactive”. With CN(C)c1ccc(C=NNC(=O)c2cccc3ccccc23)c(Cl)c1 the Potency was active: 3.66 µM. For Cc1ccc2[nH]c(O)c(N=Nc3ccccc3[N+](=O)[O-])c2c1, the Potency was inconclusive: 29.1 µM [cytotoxic, single point]. With CCOc1ccc(-c2nc3c(c(SCC(=O)Nc4ccccc4C)n2)Cc2ccccc2O3)cc1 the Potency was inconclusive: 18.4 µM [cytotoxic, partial curve, poor fit]. With Cc1ccc(-c2ccc(/C=N\NC(=O)C3C(=O)NCC3c3ccccc3)o2)cc1Cl (stereo unspecified) the Potency was “inactive”. With Cc1nn(Cc2ccc(C(=O)N3CCOCC3)o2)c(C)c1Br the Potency was inconclusive: 9.2 µM [cytotoxic, partial curve, poor fit]. For COc1ccccc1OC(C)C(=O)Nc1cccc(-c2nc3ccccc3s2)c1 (stereo unspecified), the Potency was “inactive”. With Cc1cc(C)n(-c2nc3ccccc3nc2Nc2ccc(N(C)C)cc2)n1 the Potency was “inactive”. With COC(=O)c1cccc(CSc2nc3ccccc3[nH]2)c1 the Potency was inconclusive: 29.1 µM [cytotoxic, single point]. With Cc1cc(C)cc(NC(=O)Cn2c(-c3cncs3)nc3ccccc32)c1 the Potency was “inactive”. With Cc1ccccc1NC(=O)CC(NCc1cccnc1)C(=O)O (stereo unspecified) the Potency was inconclusive: 5.8 µM [rising, full curve, poor fit]. In the case of CC1CN(S(=O)(=O)c2cccc(C(=O)OCCOc3ccccc3)c2)CC(C)O1 (stereo unspecified), the Potency is reported as active: 11.6 µM. For CN(C)c1cccc(NC(=O)C2Cc3c(-c4ccc(Cl)cc4)ccnc3O2)c1 (stereo unspecified), the Potency was inconclusive: 23.1 µM [cytotoxic, single point]. With CCCCn1nnnc1C(c1cc2ccccc2o1)N1CCCN(C(=O)OC(C)(C)C)CC1 (stereo unspecified) the Potency was inconclusive: 6.51 µM [cytotoxic, partial curve]. With Cc1cc(/C=C(\C#N)C(=O)NCc2ccccc2)cc(C)c1O the Potency was inconclusive: 20.6 µM [rising, single point]. With Cn1cc(C(=O)c2ccc(Cl)cc2Cl)cc1C(=O)N/N=C(\N)COc1cccc(C(F)(F)F)c1 the Potency was inconclusive: 20.6 µM [cytotoxic, single point]. With COc1ccc(C(C(=O)NC2CCCCC2)N(Cc2ccco2)C(=O)c2snc(C(N)=O)c2N)cc1 (stereo unspecified) the Potency was active: 16.4 µM. In the case of CCOc1ccc(C(=O)Nc2ccc(-c3nn[nH]n3)cc2)cc1[N+](=O)[O-], the Potency is reported as inconclusive: 20.6 µM [rising, single point]. In the case of C=CCn1c(SCc2ccc(Cl)c(Cl)c2)nnc1C(CO)NC(=O)c1ccc(OC)cc1 (stereo unspecified), the Potency is reported as inconclusive: 9.2 µM [cytotoxic, partial curve, poor fit]. With Cc1ccc2nc(N3CCN(C)CC3)c(C#N)cc2c1 the Potency was “inactive”. For Cc1ccc(S(=O)(=O)N2CCCOC2CNC(=O)C(=O)NC2CCCCC2)cc1 (stereo unspecified), the Potency was inconclusive: 7.31 µM [cytotoxic, partial curve]. In the case of C[C@H]1CN[C@H](CCO)/C1=C\c1ccccc1, the Potency is reported as “inactive”. With COc1ccc(-c2ccc3c(c2)c(C#Cc2ccsc2)c(-c2cc(OC)cc(OC)c2)n3C)cc1 the Potency was inconclusive: 0.0517 µM [cytotoxic, full curve, poor fit]. In the case of COCCNC(=O)CCC(=O)NNc1nc2ccccc2c2nc(C)nn12, the Potency is reported as inconclusive: 29.1 µM [rising, single point]. With CCOc1ccccc1NC(=O)c1c(NC(=O)COc2ccc(Cl)cc2)sc2c1CCCCC2 the Potency was inconclusive: 29.1 µM [rising, single point].
